The target of test [1] is mouse Elp123 subcomplex (Elp1, Elp2, Elp3) of the reconstituted mouse Elongator complex (mouse) (UniProt Q7TT37+Q91WG4+Q9CZX0). Put plainly: cross-linking; photo-crosslinking mass spectrometry with sulfo-SDA on purified reconstituted Elongator; HsElongator 85 µg at 1.4 µM, MmElongator 60 µg at 5.0 µM; 1:500 and 1:1000 protein:crosslinker, 60 min at room temperature, UV 365 nm for 10 s; 3% FDR at the residue pair level; both purified.

Sequences of proteins named here, by UniProt entry; tags and fusion partners are left off. A change or cut given only in a name is not applied to a line headed by its entry.
UniProt Q7TT37: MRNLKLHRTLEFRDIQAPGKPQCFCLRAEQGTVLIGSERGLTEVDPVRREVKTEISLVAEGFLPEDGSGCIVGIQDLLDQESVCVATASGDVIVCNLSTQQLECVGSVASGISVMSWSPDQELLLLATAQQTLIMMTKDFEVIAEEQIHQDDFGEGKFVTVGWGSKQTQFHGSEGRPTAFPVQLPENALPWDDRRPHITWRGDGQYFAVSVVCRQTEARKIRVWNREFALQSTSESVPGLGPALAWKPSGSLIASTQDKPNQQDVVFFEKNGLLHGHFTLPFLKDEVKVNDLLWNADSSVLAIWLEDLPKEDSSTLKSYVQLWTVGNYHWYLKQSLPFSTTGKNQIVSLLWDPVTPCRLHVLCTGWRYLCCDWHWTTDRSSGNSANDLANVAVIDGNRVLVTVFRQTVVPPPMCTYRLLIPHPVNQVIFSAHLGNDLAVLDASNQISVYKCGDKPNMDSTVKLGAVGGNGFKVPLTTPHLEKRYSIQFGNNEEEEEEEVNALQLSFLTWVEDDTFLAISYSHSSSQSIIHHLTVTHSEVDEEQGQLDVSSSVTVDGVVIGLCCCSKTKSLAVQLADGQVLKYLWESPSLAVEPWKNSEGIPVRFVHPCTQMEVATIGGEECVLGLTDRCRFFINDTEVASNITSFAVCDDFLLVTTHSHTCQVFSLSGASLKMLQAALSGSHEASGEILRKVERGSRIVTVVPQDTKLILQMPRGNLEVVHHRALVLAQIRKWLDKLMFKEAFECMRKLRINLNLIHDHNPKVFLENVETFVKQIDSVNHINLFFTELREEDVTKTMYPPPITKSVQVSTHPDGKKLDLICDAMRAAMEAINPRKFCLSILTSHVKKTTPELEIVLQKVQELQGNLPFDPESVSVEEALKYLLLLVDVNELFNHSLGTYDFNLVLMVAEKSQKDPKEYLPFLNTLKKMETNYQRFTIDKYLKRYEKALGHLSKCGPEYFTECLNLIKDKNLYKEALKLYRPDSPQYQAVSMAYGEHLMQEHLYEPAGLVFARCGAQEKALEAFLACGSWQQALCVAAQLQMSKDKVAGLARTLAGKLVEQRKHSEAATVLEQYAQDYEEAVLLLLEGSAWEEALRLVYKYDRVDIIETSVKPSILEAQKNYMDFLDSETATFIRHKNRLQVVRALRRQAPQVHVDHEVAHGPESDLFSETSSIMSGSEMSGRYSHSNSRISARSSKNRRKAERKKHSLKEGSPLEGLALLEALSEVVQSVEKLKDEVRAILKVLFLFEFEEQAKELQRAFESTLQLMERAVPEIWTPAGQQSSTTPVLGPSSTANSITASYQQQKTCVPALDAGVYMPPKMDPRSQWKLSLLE
UniProt Q91WG4: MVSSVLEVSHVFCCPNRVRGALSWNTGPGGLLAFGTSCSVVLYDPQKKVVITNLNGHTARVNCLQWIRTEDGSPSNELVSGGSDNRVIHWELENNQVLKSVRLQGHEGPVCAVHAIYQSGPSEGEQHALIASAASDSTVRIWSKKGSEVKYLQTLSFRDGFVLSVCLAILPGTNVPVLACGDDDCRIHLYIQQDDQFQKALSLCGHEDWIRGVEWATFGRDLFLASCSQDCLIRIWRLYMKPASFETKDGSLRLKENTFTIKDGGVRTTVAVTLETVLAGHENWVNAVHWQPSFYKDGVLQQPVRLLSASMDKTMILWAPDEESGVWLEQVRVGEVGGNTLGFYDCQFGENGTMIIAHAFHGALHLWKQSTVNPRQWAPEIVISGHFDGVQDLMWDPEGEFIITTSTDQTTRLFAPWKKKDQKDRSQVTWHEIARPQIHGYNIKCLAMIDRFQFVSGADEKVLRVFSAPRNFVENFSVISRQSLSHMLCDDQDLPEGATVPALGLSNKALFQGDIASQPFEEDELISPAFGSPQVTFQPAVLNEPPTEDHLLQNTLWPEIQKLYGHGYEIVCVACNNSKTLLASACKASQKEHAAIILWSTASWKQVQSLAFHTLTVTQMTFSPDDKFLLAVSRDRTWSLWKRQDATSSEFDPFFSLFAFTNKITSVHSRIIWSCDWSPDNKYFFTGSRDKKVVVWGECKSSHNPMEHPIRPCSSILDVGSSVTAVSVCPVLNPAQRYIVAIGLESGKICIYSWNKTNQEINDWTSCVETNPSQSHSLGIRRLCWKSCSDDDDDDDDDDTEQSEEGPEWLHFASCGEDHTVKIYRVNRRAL
UniProt Q9CZX0: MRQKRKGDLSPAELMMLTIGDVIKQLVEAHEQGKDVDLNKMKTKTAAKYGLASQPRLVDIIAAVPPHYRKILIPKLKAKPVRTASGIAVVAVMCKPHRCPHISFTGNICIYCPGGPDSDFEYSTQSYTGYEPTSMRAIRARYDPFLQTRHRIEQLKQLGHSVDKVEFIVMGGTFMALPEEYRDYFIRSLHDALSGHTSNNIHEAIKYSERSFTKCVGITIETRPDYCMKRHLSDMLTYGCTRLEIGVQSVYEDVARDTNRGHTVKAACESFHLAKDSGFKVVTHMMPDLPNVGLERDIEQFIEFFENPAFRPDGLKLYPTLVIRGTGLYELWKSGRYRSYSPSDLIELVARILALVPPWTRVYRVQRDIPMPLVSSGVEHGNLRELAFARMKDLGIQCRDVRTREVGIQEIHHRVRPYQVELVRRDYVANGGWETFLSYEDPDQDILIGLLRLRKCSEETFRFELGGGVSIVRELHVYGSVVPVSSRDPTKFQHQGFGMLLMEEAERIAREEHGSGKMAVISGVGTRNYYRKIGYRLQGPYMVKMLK
UniProt O95163: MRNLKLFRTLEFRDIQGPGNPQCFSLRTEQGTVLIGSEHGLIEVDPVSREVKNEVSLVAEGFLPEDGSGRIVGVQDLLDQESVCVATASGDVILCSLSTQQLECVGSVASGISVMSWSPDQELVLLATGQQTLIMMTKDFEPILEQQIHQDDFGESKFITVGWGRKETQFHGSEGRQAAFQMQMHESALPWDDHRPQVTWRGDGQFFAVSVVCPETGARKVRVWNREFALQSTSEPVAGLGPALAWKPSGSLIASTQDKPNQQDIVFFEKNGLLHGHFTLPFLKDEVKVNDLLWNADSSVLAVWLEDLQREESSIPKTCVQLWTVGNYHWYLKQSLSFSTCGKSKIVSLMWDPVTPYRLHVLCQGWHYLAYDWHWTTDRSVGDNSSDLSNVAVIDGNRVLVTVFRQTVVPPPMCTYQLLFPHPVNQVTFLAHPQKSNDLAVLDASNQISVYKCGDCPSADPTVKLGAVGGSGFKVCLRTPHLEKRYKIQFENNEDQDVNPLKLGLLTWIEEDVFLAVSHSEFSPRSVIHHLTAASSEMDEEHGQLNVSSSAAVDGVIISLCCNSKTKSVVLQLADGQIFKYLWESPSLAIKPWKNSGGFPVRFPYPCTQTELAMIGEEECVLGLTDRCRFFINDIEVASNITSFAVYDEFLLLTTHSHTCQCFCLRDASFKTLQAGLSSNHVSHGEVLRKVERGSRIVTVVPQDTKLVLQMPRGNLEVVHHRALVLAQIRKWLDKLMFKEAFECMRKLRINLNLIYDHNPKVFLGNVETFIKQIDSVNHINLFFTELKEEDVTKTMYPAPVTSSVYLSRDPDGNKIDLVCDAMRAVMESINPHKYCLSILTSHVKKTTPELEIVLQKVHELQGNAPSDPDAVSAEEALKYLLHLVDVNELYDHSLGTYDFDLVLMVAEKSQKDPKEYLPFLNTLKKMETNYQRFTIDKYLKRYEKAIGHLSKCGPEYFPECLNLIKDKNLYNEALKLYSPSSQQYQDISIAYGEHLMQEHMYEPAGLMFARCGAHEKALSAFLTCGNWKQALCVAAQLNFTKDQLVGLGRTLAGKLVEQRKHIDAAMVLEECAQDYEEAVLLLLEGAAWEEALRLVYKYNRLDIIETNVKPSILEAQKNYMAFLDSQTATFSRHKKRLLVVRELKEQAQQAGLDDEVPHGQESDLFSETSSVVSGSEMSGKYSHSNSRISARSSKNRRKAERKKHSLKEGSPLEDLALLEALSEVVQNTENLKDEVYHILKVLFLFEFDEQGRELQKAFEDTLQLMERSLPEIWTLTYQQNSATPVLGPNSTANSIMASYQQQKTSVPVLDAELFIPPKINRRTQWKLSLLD
UniProt Q6IA86: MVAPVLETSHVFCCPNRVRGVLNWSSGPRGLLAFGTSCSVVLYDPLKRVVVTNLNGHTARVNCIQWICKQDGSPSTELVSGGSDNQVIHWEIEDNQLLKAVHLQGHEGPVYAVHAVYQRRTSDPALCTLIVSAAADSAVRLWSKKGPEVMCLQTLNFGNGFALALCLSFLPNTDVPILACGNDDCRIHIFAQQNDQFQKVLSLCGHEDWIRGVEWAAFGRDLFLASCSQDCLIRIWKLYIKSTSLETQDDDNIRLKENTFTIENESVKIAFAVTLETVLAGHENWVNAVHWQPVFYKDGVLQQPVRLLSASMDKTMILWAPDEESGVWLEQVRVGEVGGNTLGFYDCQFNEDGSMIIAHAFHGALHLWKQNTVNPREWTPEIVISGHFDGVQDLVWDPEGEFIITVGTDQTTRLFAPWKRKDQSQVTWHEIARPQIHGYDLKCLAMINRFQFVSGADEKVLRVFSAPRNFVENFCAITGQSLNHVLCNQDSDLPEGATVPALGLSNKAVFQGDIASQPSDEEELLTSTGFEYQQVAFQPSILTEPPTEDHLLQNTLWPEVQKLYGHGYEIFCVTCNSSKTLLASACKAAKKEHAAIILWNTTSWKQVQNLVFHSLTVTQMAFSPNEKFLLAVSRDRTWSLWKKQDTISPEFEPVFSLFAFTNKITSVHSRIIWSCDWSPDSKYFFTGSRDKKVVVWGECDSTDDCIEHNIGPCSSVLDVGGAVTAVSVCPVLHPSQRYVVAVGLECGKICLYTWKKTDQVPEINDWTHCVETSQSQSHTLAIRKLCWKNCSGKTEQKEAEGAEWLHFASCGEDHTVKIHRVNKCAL
UniProt Q9H9T3: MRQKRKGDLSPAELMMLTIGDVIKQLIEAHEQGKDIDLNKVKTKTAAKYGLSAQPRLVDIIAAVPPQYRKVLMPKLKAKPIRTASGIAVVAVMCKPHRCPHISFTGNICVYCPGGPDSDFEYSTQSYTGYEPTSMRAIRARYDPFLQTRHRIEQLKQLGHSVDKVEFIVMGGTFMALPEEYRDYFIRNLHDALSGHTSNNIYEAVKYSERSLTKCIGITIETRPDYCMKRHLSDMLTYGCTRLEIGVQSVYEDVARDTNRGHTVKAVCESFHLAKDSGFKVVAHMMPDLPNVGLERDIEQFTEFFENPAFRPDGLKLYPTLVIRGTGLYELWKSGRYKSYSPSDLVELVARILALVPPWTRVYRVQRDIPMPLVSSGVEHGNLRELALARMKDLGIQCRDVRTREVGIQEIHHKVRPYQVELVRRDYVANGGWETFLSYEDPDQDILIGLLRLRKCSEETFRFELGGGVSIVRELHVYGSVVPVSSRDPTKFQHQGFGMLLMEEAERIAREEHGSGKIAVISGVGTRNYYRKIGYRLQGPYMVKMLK

Test [2] concerns the target human ELP123 subcomplex (ELP1, ELP2, ELP3) (human) (UniProt O95163+Q6IA86+Q9H9T3). The description is as above.

Here are results for 2 molecules from paper PMC11096365, “Cryo-EM structures of the human Elongator complex at work” (Nature Communications, 2024).

No constants are given. Whether binding was seen depends on the method and setting. Some results given as binding are weak or reduced against the parent protein; the word gives no strength.

B1: mouse Elp456 subcomplex (Elp4, Elp5, Elp6) of the reconstituted mouse Elongator complex (complex, UniProt Q9ER73 1-422; Q99L85 1-300; Q8BK75 1-266)
chain 1: MAAADTCGAGTLSSRSVASEAGQGGTSSFQRKGKASGGPGGGPRLLSIAGTRPSVRNGQLLVSTGLPALDQLLGGGLAVGTLLLIEEDKYNIYSPLLFKYFMAEGIINGHTLLVASAKENPAKILQELPAPLLDDNSKKELEDVHSAKTPEPNVNMKIAWRYQLQPKMEVGPVSSSRFGHYYDLSKRIPWELLQSSKWHGFFLPEHISPDLKGESCFLSCGYMRLLEFIQKSVYAEGFDGANPQKKQKNILRIGIQNLGSPLWGDDICCKENCDNNHRLTKFLYILRGLLRSSLSACIITMPAHLVQNKSITTRVRNLSDTVVGLESFIGSERETNPLYKDYHGLIHIRKIPRLNNLTCDESDVKDLAFKLKRKLFTIERLHLPPDLSDTVGRSSKQDLAASTARLGAGCSSMAEGKKHLDF
chain 2: MLDSLLAIGGLVLLRDSVEWEGRSLLKALIKKSALRGEQVHVLGCEVSEEEFREGFDSDVNSRLVYHDLFRDPLNWSKPGEAVPEGPLKALRSMCKRTDHGSVTIALDSLSWLLCHIPCVTLCQALHALSQQNGDPGDNSLVEQVRVLGLLHEELHGPGSMGALNTLAHTEVTLSGKVDQTSASILCRRPQQRATYQTWWFSVLPDFSLTLHEGLPLRSELHPDHHTTQVDPTAHLTFNLHLSKKEREARDSLTLPFQFSSEKQKALLHPVPSRTTGHIFYEPDAFDDVDPEDPDDDLDI
chain 3: MFPELNNLLSTTPDKTEQGTLTLLCDAKTDGSFLVHHFLSFYLKANCKVCFVALVQSFSHYNIVGQKLGVSLTAARDRGQLVFLEGLKSSVEVLFHSQDEPHPLQFLREAGTGNLQSLYTFIQDTLKPADSEESPWKYPVLLVDNLSVLLSLGVGAVAVLDFMQYCRATVCCELKGNVVALVHDTEGATDEGNDTLLNGLSHQSHLILRAEGLATGFCKDVHGQLSILWRRPSRSTAQRAQSLTYQYKIQDKNVSFFAKGMSPAVL
Regarding B1, the binding result in test [1] is listed as “binds”.

B2: human ELP456 subcomplex (ELP4, ELP5, ELP6) (complex, UniProt Q96EB1 1-424; Q8TE02 1-300; Q0PNE2 1-266)
chain 1: MAAVATCGSVAASTGSAVATASKSNVTSFQRRGPRASVTNDSGPRLVSIAGTRPSVRNGQLLVSTGLPALDQLLGGGLAVGTVLLIEEDKYNIYSPLLFKYFLAEGIVNGHTLLVASAKEDPANILQELPAPLLDDKCKKEFDEDVYNHKTPESNIKMKIAWRYQLLPKMEIGPVSSSRFGHYYDASKRMPQELIEASNWHGFFLPEKISSTLKVEPCSLTPGYTKLLQFIQNIIYEEGFDGSNPQKKQRNILRIGIQNLGSPLWGDDICCAENGGNSHSLTKFLYVLRGLLRTSLSACIITMPTHLIQNKAIIARVTTLSDVVVGLESFIGSERETNPLYKDYHGLIHIRQIPRLNNLICDESDVKDLAFKLKRKLFTIERLHLPPDLSDTVSRSSKMDLAESAKRLGPGCGMMAGGKKHLDF
chain 2: MLDSLLALGGLVLLRDSVEWEGRSLLKALVKKSALCGEQVHILGCEVSEEEFREGFDSDINNRLVYHDFFRDPLNWSKTEEAFPGGPLGALRAMCKRTDPVPVTIALDSLSWLLLRLPCTTLCQVLHAVSHQDSCPGDSSSVGKVSVLGLLHEELHGPGPVGALSSLAQTEVTLGGTMGQASAHILCRRPRQRPTDQTQWFSILPDFSLDLQEGPSVESQPYSDPHIPPVDPTTHLTFNLHLSKKEREARDSLILPFQFSSEKQQALLRPRPGQATSHIFYEPDAYDDLDQEDPDDDLDI
chain 3: MFVELNNLLNTTPDRAEQGKLTLLCDAKTDGSFLVHHFLSFYLKANCKVCFVALIQSFSHYSIVGQKLGVSLTMARERGQLVFLEGLKSAVDVVFQAQKEPHPLQFLREANAGNLKPLFEFVREALKPVDSGEARWTYPVLLVDDLSVLLSLGMGAVAVLDFIHYCRATVCWELKGNMVVLVHDSGDAEDEENDILLNGLSHQSHLILRAEGLATGFCRDVHGQLRILWRRPSQPAVHRDQSFTYQYKIQDKSVSFFAKGMSPAVL
Take B2: in test [2], the binding result is on record as “binds”.
